Experimental data published in the supplement of paper PMC12819154, “High-throughput peptide-centric local stability assay extends protein–ligand identification to membrane proteins, tissues and bacteria” (Nature Structural & Molecular Biology, 2025).
The list shows a part of the results. Most values lie at the level of the controls, where differences are scatter.

Sequences of proteins named here, by UniProt entry; tags and fusion partners are left off. A change or cut given only in a name is not applied to a line headed by its entry.
UniProt Q9DB29: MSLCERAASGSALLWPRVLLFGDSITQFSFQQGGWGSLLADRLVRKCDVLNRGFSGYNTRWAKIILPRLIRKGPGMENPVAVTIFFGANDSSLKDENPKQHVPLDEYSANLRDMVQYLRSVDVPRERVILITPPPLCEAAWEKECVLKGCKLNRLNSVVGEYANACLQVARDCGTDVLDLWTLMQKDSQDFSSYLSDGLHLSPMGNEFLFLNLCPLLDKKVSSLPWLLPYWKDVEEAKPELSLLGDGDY
UniProt Q9ER71: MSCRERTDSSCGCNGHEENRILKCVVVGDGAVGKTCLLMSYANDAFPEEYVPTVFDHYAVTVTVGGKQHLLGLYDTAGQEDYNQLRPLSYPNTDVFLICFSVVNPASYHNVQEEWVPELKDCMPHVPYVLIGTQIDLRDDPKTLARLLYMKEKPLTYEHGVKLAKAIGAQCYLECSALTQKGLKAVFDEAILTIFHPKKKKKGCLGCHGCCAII
UniProt Q9DCP2, whole entry: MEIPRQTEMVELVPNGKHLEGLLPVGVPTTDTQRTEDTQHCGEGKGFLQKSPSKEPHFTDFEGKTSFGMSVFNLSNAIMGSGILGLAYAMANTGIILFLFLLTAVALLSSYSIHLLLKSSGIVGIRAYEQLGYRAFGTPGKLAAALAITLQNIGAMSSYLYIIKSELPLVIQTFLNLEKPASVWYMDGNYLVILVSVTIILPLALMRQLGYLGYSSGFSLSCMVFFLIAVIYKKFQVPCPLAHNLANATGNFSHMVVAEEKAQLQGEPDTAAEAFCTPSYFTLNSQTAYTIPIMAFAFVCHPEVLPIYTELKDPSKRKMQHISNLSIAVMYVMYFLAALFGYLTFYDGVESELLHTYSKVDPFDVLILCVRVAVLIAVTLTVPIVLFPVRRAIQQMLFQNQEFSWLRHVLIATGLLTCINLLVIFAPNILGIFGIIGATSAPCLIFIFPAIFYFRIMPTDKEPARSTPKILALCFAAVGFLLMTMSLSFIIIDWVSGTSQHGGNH
UniProt Q9EPT5, whole entry: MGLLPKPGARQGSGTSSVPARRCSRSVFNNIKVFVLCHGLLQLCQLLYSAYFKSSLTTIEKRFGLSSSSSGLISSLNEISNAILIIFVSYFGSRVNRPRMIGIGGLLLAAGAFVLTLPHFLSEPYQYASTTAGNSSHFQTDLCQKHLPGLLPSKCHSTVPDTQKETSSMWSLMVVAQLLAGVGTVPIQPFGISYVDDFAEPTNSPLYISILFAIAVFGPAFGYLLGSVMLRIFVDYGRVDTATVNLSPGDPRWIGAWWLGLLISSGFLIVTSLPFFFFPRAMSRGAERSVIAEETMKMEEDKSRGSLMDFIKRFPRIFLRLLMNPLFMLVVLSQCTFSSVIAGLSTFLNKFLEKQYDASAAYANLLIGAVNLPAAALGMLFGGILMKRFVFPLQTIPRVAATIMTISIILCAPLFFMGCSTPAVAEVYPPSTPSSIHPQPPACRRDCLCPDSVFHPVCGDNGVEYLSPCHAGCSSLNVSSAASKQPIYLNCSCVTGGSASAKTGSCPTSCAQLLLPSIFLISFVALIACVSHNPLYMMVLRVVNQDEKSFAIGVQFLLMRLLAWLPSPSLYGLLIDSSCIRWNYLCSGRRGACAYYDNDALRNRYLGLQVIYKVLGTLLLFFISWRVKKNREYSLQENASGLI
UniProt Q9DB77: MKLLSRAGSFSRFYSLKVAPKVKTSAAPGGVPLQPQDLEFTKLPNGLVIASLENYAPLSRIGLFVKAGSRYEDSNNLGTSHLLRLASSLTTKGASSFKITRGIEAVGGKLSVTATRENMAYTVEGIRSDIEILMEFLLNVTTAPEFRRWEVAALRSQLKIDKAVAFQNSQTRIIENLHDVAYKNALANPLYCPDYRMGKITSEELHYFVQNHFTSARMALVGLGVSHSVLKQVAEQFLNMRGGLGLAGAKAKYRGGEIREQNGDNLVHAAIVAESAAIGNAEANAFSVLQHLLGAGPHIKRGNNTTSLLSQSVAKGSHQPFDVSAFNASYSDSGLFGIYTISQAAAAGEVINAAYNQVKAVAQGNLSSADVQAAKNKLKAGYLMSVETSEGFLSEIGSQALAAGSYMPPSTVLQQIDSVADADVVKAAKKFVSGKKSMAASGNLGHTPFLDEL
UniProt Q9DB85: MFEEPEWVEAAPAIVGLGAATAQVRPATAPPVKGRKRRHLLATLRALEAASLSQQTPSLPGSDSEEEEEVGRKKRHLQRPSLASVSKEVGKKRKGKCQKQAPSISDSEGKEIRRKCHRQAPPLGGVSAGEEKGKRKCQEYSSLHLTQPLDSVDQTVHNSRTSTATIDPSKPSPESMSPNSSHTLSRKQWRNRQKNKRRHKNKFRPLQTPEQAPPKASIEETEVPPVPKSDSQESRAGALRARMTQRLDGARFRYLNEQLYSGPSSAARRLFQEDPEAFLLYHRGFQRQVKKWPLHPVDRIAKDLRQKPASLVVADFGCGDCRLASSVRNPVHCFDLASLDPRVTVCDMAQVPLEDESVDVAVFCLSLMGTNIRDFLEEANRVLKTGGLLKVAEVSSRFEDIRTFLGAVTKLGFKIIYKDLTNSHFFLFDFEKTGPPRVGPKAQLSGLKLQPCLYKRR
UniProt Q9EPW2: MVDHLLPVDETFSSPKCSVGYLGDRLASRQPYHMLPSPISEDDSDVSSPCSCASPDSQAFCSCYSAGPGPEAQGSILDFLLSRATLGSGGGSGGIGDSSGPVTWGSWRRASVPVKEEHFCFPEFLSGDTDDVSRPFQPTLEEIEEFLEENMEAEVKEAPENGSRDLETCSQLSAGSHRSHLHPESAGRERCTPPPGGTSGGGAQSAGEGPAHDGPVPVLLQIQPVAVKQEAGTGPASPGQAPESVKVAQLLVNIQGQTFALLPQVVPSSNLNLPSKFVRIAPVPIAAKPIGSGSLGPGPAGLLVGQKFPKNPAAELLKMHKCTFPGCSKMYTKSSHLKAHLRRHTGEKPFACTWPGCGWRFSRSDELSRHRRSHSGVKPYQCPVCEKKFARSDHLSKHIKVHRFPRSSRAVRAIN
UniProt Q9DCL2: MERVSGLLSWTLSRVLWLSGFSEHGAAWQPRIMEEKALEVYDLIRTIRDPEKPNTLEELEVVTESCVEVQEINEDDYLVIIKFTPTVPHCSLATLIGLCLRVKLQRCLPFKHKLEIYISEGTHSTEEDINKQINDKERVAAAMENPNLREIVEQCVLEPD
UniProt Q9DCT1: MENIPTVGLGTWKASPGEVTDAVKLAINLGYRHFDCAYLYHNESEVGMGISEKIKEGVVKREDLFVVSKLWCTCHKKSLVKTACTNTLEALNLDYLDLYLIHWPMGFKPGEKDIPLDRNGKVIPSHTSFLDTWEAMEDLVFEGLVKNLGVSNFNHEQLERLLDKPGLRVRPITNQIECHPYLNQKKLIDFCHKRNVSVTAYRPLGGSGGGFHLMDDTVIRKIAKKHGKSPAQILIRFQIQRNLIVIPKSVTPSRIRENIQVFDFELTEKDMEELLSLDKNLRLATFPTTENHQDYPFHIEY
UniProt Q9DBS9: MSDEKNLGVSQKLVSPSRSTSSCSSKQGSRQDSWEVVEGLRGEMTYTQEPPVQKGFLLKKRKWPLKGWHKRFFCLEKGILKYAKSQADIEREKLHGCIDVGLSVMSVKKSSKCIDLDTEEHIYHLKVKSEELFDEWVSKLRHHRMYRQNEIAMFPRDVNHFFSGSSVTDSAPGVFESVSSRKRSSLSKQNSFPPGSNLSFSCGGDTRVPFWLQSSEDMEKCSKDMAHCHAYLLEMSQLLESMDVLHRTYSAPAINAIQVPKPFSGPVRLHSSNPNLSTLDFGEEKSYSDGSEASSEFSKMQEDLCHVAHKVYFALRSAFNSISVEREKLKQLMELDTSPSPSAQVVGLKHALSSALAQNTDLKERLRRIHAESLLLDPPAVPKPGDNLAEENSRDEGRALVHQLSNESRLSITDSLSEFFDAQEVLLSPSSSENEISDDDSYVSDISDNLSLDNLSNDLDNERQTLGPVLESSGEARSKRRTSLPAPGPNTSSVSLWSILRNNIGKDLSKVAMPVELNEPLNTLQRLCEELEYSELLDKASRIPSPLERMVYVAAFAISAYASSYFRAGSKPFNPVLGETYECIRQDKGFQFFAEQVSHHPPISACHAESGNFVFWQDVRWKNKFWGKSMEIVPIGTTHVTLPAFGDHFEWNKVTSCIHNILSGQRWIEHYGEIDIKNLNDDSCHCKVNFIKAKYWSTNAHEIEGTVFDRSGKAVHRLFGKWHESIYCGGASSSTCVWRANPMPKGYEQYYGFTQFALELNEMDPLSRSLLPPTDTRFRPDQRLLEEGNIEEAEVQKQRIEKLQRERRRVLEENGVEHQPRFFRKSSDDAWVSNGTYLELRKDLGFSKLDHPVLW
UniProt Q9EPQ8: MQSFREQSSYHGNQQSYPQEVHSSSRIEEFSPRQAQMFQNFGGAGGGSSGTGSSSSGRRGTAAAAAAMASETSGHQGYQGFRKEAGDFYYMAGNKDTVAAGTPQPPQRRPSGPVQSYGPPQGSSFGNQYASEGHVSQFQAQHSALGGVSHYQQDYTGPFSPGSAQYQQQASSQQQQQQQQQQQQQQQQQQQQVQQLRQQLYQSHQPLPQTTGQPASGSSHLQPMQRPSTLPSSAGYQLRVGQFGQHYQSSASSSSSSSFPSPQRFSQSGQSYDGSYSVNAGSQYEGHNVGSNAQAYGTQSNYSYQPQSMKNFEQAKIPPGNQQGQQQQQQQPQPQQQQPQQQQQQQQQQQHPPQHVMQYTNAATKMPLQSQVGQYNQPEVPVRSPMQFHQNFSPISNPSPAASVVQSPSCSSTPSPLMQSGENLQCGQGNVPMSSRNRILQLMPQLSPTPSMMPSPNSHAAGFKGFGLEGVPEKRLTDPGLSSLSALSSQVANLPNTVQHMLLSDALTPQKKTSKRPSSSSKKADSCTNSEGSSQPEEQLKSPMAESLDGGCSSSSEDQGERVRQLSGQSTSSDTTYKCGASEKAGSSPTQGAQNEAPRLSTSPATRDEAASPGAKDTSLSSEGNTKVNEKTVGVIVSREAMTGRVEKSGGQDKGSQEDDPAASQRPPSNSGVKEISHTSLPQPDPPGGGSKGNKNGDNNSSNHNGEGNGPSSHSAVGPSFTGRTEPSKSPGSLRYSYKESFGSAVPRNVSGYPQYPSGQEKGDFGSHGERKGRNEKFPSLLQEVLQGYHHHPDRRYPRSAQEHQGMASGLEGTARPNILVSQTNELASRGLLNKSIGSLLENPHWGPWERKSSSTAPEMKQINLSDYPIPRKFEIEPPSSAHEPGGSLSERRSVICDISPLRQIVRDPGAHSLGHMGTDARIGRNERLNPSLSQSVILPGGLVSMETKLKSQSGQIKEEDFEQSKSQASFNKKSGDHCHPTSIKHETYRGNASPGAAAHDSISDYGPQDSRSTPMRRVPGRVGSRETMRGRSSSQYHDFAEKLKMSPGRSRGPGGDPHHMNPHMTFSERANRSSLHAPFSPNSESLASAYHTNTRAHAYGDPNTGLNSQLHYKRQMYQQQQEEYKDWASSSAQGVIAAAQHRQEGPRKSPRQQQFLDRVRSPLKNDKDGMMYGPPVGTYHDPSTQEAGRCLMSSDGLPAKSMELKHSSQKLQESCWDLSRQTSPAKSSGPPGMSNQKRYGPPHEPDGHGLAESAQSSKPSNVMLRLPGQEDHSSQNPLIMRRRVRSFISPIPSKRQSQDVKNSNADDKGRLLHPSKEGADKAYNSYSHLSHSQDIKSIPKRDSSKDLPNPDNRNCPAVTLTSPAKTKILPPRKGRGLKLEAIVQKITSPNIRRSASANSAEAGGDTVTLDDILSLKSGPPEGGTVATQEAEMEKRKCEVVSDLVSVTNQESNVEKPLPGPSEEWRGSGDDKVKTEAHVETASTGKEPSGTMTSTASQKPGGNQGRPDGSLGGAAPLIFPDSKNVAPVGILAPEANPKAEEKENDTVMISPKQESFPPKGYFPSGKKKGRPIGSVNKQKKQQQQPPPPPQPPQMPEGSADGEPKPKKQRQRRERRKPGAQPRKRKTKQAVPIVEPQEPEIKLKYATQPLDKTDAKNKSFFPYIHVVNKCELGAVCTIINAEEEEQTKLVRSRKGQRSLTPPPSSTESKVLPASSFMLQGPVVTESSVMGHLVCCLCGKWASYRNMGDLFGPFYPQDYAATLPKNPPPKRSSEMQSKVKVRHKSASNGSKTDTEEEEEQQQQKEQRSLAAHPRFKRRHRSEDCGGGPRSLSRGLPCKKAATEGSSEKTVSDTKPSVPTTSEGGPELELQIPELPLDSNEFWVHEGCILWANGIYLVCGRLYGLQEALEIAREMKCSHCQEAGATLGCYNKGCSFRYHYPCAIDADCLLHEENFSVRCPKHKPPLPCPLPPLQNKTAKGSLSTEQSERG
UniProt Q9DC51, whole entry: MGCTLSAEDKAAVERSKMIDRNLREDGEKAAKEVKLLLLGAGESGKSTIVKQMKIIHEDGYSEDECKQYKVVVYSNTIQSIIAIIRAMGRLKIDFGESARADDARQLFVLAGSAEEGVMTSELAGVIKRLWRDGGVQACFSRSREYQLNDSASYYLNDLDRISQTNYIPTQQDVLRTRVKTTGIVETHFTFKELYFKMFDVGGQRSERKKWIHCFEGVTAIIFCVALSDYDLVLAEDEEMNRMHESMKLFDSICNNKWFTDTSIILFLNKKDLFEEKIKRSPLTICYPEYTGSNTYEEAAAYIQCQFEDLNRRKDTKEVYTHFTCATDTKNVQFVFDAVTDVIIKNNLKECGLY

What follows are targets tested with CN[C@@H]1C[C@H]2O[C@@](C)([C@@H]1OC)n1c3ccccc3c3c4c(c5c6ccccc6n2c5c31)C(=O)NC4 [staurosporine] (assay: log2 fold change of tryptic peptide abundance, ligand vs vehicle (limited proteolysis) (log2 ratio); higher = more trypsin-susceptible (destabilized)). Details: ligand concentration: 20 uM; sample: mouse liver crude lysate; replicate design: treated separately.

Row | Target | log2 fold change
1 | UniProt Q9DBJ6 (peptide sequence: LSPNTMVTPHKK, peptide start residue: 63) | 0.284
2 | UniProt Q9DCC4 (peptide sequence: AATMSAVEAATCRAKELSK, peptide start residue: 255) | -0.36
3 | UniProt Q9DAW6 (peptide sequence: NILSVVGTDALKK, peptide start residue: 134) | 0.173
4 | UniProt Q9EPX2 (peptide sequence: EGQDPNLSSAGR, peptide start residue: 591) | -0.442
5 | UniProt Q9DAV9 (peptide sequence: RQQQQFSSSEKK, peptide start residue: 248) | 0.358
6 | UniProt Q9EQK5 (peptide sequence: LLQSLGLK, peptide start residue: 821) | -0.171
7 | UniProt Q9DC33 (peptide sequence: YLDEADRDKER, peptide start residue: 151) | 0.194
8 | UniProt Q9DBV4 (peptide sequence: VSVNTNAFAR, peptide start residue: 242) | 0.236
9 | UniProt Q9DB29 (peptide sequence: DMVQYLR, peptide start residue: 113) | -0.474
10 | UniProt Q9ER71 (peptide sequence: EKPLTYEHGVK, peptide start residue: 152) | 0.646
11 | UniProt Q9DC40 (peptide sequence: EVSVELAK, peptide start residue: 552) | -0.386
12 | UniProt Q9DBD0 (peptide sequence: VLPAGGPAVTCVR, peptide start residue: 48) | 0.221
13 | UniProt Q9DCP2 (peptide sequence: HLEGLLPVGVPTTDTQR, peptide start residue: 18) | -0.191
14 | UniProt Q9EQW7 (peptide sequence: ATEEIEDR, peptide start residue: 1301) | 0.477
15 | UniProt Q9EPT5 (peptide sequence: SVIAEETMK, peptide start residue: 289) | -0.111
16 | UniProt Q9EQ06 (peptide sequence: KLGAQAHPFVVDCSQR, peptide start residue: 82) | -0.653
17 | UniProt Q9EPL2 (peptide sequence: ATEDVLVK, peptide start residue: 247) | 0.0166
18 | UniProt Q9DB77 (peptide sequence: IDKAVAFQNSQTR, peptide start residue: 160) | -0.537
19 | UniProt Q9DB85 (peptide sequence: QAPSISDSEGK, peptide start residue: 100) | -0.145
20 | UniProt Q9EPL8 (peptide sequence: QLQDIATLADQRR, peptide start residue: 991) | -0.291

Row | Target | log2 fold change
21 | UniProt Q9EPW2 (peptide sequence: SHLHPESAGR, peptide start residue: 179) | -0.116
22 | UniProt Q9DCL2 (peptide sequence: VLWLSGFSEHGAAWQPR, peptide start residue: 15) | -0.0408
23 | UniProt Q9EPK6 (peptide sequence: KVLFALCSLLR, peptide start residue: 292) | 0.53
24 | UniProt Q9DCZ1 (peptide sequence: HAGGVAEYR, peptide start residue: 278) | 0.332
25 | UniProt Q9DCT1 (peptide sequence: REDLFVVSK, peptide start residue: 61) | 0.184
26 | UniProt Q9EPK5 (peptide sequence: ITTWQDPR, peptide start residue: 149) | 0.169
27 | UniProt Q9DBS2 (peptide sequence: QTLWPLNVHDPTRR, peptide start residue: 38) | 0.0488
28 | UniProt Q9DBY0 (peptide sequence: HLNTEHALDDR, peptide start residue: 332) | -0.687
29 | UniProt Q9DBD2 (peptide sequence: SALTEPTLENK, peptide start residue: 249) | -0.127
30 | UniProt Q9DBS9 (peptide sequence: SAFNSISVER, peptide start residue: 317) | 0.382
31 | UniProt Q9ERI2 (peptide sequence: ANGPDGAVGR, peptide start residue: 55) | -0.344
32 | UniProt Q9DCI3 (peptide sequence: DIHSINPAQLMAR, peptide start residue: 24) | -0.0538
33 | UniProt Q9DCH2 (peptide sequence: NNSAIHIR, peptide start residue: 126) | -0.221
34 | UniProt Q9EQG9 (peptide sequence: REVEENGIVLDPLKATHAVK, peptide start residue: 432) | -0.527
35 | UniProt Q9DBR7 (peptide sequence: LEKDDSTDFKK, peptide start residue: 923) | -0.179
36 | UniProt Q9ERI5 (peptide sequence: ADALQLSVK, peptide start residue: 49) | -0.669
37 | UniProt Q9EPQ8 (peptide sequence: ESFGSAVPR, peptide start residue: 740) | 0.395
38 | UniProt Q9DBH0 (peptide sequence: VWSCHTLR, peptide start residue: 85) | 0.416
39 | UniProt Q9DC51 (peptide sequence: IDFGESAR, peptide start residue: 93) | -0.204
40 | UniProt Q9DAR7 (peptide sequence: REQEAEEAETPSTEEK, peptide start residue: 12) | 0.225

Looked up above.
log2 fold change, UniProt Q9DBD2 (peptide sequence: SALTEPTLENK, peptide start residue: 249) reads -0.127
log2 fold change, UniProt Q9DC51 (peptide sequence: IDFGESAR, peptide start residue: 93) reads -0.204
